Data published in article PMC8997913, “Lichen Secondary Metabolites Inhibit the Wnt/β-Catenin Pathway in Glioblastoma Cells and Improve the Anticancer Effects of Temozolomide” (Cells, 2022).

Experiment: Parallel artificial membrane permeability assay for the blood-brain barrier (PAMPA-BBB)
Assay type: in vitro ADME
Conditions: pH 7.4, 4 h, 37 °C, mean ± SEM, n = 3, Pe > 1.5 high, < 1.5 low permeation predicted, read-out: Pe × 10^−6
Protocol: The parallel artificial membrane permeability assay (PAMPA) for the blood-brain barrier (BBB) (Pion Inc., Billerica, MA, USA) was used to analyze whether the lichen secondary metabolites tested in this study were able to cross the BBB. The stock solutions (5 mg/mL) of tested compounds were prepared using DMSO. Next, the donor solution (24.75 μg/mL) using Prisma buffer (pH = 7.4; Prisma HT, Pion Inc., Billerica, MA, USA) were made. Firstly, 180 μL of the donor solution were added to the donor wells. Then the filter membranes were coated with 5 μL BBB-1 lipid solution (Pion Inc., Billerica, MA, USA) and the acceptor wells were filled with 200 μL BSB (Brain Sink Buffer, Pion Inc., Billerica, MA, USA). The plates were sandwiched together and incubated for 4 h at 37 °C (Thermo Scientific MaxQ 4450, Waltham, MA, USA). The results were determined by spectroscopic analysis (Multiskan GO microplate reader, Waltham, MA, USA), with the appropriate wavelength for a given compound (240 nm for […] salazinic acid, 250 nm for atranorin and squamatic acid, 263 nm for physodic acid, and 270 nm for lecanoric acid). […] Pe is the effective permeability coefficient (cm/s), VD-donor volume, VA-acceptor volume, Ceq-equilibrium concentration, Ceq=CD×VD+CA×VA/VD+VA , S-membrane area, and t-incubation time (in seconds). […] Samples were analyzed in triplicate, and the average was reported.

`CCN(CC)CC(=O)Nc1c(C)cccc1C` [Lidocaine, reference compound] showed a Papp at 4 h, 24.75 µg/mL of 25.5 ± 2.6 ×10⁻⁶ cm/s.
